{"source": "patent US10059740B2", "about": "“Integrin interaction inhibitors for the treatment of cancer” (H. LEE MOFFITT CANCER CENTER AND RESEARCH INSTITUTE, INC., priority 2010, dated 2018)", "format_in_all_cases": "cell-based", "key": {"8226 myeloma cells": {"system": "8226 myeloma cells", "assay": "HYD1 induced cell death in 8226 myeloma cells"}, "[1]": {"system": "CD138 positive (myeloma) cells", "assay": "Cell death in primary myeloma specimens from BM aspirate, Annexin V/PI staining and FACS", "details": "50 μg/ml, 24 h"}, "[2]": {"system": "CD34+ hematopoietic progenitor cells", "assay": "Colony forming assay, normal CD34+ hematopoietic progenitor cells", "details": "2 hrs treatment, 12.5 and 50 μg/ml, colonies counted day 12"}, "H929 myeloma cells": {"system": "H929 myeloma cells", "experimental": "H929 cells were treated for 24 hours with varying concentrations of peptide. Cell death was measured by Topro-3 staining and FACS analysis. The IC50 values were obtained from linear regression analysis and an average value was obtained from 3 independent experiments.\nTable 4 legend: Structure activity relationship in H929 myeloma cells of cyclic INTEGRIN INTERACTION INHIBITORS derivatives. The minimal bioactive core sequence of INTEGRIN INTERACTION INHIBITORS WSVVM (SEQ ID NO:85) was cyclized using 2 novel reduced amide bond beta turn promoters and KLKLK (SEQ ID NO:27) as the non-recognition sequence. H929 cells were treated with varying concentrations of the indicated peptide for 24 h. Cell viability was determined using Topro-3 staining and FACS analysis after drug treatment. IC50 values were generated from linear regressions generated from the dose response curves (n=mean of 3 independent experiments). […]\nA colony forming assay was used to compare induced cell death in H929 multiple myeloma cells. Cells were treated with integrin interaction inhibitors, shown in FIG. 5 and Table 4, and cell death was measured following 24 hour peptide treatment by TOPRO-3 staining and FACS analysis."}, "U226 myeloma cells": {"system": "U226 myeloma cells", "assay": "HYD1 induced cell death in U226 myeloma cells"}, "MM1S myeloma cells": {"system": "MM1S myeloma cells", "assay": "HYD1 induced cell death in MM1S myeloma cells"}}, "note": "Not every detail of the peptide structures is certain; ends, links or a residue may be inferred.", "data": [{"smiles": "CC[C@@H](C)[C@@H](NC(=O)[C@H](N)CCCCN)C(=O)N[C@H](CCCCN)C(=O)N[C@H](CCSC)C(=O)N[C@@H](C(=O)N[C@@H](C(=O)N[C@H](CO)C(=O)N[C@H](Cc1c[nH]c2ccccc12)C(=O)N[C@H](CCCCN)C(=O)NCC(=O)O)[C@H](C)CC)C(C)C", "note": "[HYD1]", "values": [{"measurement": "sensitivity to HYD1 induced cell death", "setting": "8226 myeloma cells", "result": "sensitive"}, {"measurement": "cell death in primary myeloma (CD138 positive) versus CD138 negative cells", "setting": "[1]", "result": "induces preferential cell death in MM cells"}, {"measurement": "colony formation of normal CD34 positive cells", "setting": "[2]", "result": "did not inhibit differentiation or colony formation"}, {"measurement": "IC50", "setting": "H929 myeloma cells", "result": 33, "unit": "µM"}, {"measurement": "sensitivity to HYD1 induced cell death", "setting": "U226 myeloma cells", "result": "sensitive"}, {"measurement": "sensitivity to HYD1 induced cell death", "setting": "MM1S myeloma cells", "result": "sensitive"}]}]}
